Results as given in patent publication US3978035A (Max-Planck-Gesellschaft zur Forderung der Wissenschaften …, priority 1973, dated 1976).

Assay: general procedure: solution-phase peptide synthesis; N,N'-dicyclohexylcarbodiimide/N-hydroxysuccinimide (also 1-hydroxybenzotriazole)
Conditions: for isolated yield: whole synthesis

BOC-Phe-Val-Pro-Ile-Phe-Thr (tBU)-Tyr (tBu)-Gly-OH
step yield (coupling step): 87%

Boc-FVPIF-OH
isolated yield (last three stages on basis of (4-5b)): 63%

Cbz-E(OtBu)E(OtBu)K(Boc)E(OtBu)-OH
isolated yield (all stages on basis of H-Glu(OtBu)-OMe (17)): 48%

Cbz-NK(Boc)GQ-OtBu
step yield (coupling step): 78%

H-Arg (HBr)-Nle-Glu-(OtBu)-Glu-Gln-OtBu (OtBu)-Lys (BOC)-Glu (OtBu)-Arg (HBr)-Ash-Lys-(BOC)-Gly-Gln-OtBu
step yield (late stage modification step): 95%

H-Arg-(HBr)-Asn-Lys-(BOC)-Gly-Gln-OtBu.HBr
step yield (late stage modification step): 98%

H-Glu (OtBu)-Glu (OtBu)-Lys-(BOC)-Glu (OtBu)-Arg (HBr)-Asn-Lys (BOC)-Gly-Gln-OtBu
step yield (late stage modification step): 96%

H-Glu (OtBu)-Leu-Gln-Arg (HBr)-Nle-Glu (OtBu)-Glu-(OtBu)-Lys (BOC)-Glu (OtBu)-Arg (HBr)-Asn-Lys (BOC)-Gly-Gln-OtBu
step yield (coupling step, both stages): 77% | step yield (late stage modification step): 94%

L-asparaginyl-Nε-tert.butyloxycarbonyl-L-lysyl-glycyl-L-glutamine- tert.butyl ester hydrochloride
step yield (late stage modification step): 97%

N-benzyloxycarbonyl-nonapeptide-tert.-butyl ester
step yield (coupling step): 84%

Z-Arg (δ,ω-Z2)-Nle-Glu (OtBu)-Glu (OtBu)-Lys-(BOC)-Glu (OtBu)-Arg (HBr)-Asn-Lys (BOC)-Gly-Gln-OtBu
step yield (coupling step): 85% | step yield (coupling step, all three stages on basis of fragment I): about 69%

Z-Arg-(δ,ω-Z2)-Asn-Lys-(BOC)-Gly-Gln-OtBu
step yield (coupling step): 80% | isolated yield (all stages on basis of H-Gln-OtBu (22b)): 55%

tert.butyloxycarbonyl-L-phenylalanyl-L-valyl-L-prolyl-L-isoleucyl-L-phenylalanine-N-hydroxysuccinimide ester
step yield (late stage modification step): 88%

The star is where a group is joined. Cbz = O=C(OCc1ccccc1)*; Boc = CC(C)(C)OC(=O)*; OtBu = CC(C)(C)O*
